Literature values in US20180042936A1, “MAINTENANCE THERAPY USING TIANEPTINE” (GENOMIND, Inc., priority 2016, published 2018).
For at least one compound, name, drawing or mass did not settle the structure.

Details: first phase of the STAR*D study, outpatients with depression (n=2,876)

For CN(C)CCCC1(c2ccc(F)cc2)OCc2cc(C#N)ccc21 (stereo not shown) [citalopram], the remission rate is given as “about 28%”.
